Results taken from patent EP4711384A1 (WIO Bioscience Co., Ltd., dated 2026).
Results are given in words; binding and its absence hold for the method and conditions named. Some binding calls cover weakened binding; strength is not graded here.

Target: IL-18RAP ECD-hFc (human)
Test: sandwich ELISA

| binding | Binder |
| --- | --- |
| binds | Wio-02-29 (Rap-A10-GGGGS-R1-A12) (bispecific antibody) QVQLQESGGGLVQAGGSLKLSCAASGYTYGPYCMGWFRQFPGKEREGVAAVGGDGRTWYGNSVKGRFTISQDNAKKTLYLQINALKPEDTAMYYCAADFDRTVCSDDIYDYTYRGQGTQVTVSSGGGGSQVQLQESGGGPVQAGGSLRLSCSASTTAYDNACMGWFRQAPGKEREGVASIHLRDRTYYADSVKGRFTLSRDGASKTLYLQMNSLKPEDSGTYYCASSNICNGLNLQGNTYWGQGTQVTVSS |
| binds | Wio-02-31 (Rap-C10-GGGGS-R1-F9) (bispecific antibody) QVQLQESGGGSVQPGGSLRLSCAASGFTYIPAYMGWFRQAPGKERERVASISSTDGSTTYADSVKGRFTVSQDTAKNTLYLQMNSLKPEDTAMYYCAAYQFGAFRVWGQGTQVTVSSGGGGSQVQLQESGGGSVQAGETLRLSCTASGFTVHDMGWYRQAPGNECELVSTISSDGSTYYADSVKGRFTISQDNAKNTVYLQMNSLKPEDTAVYYCAADHFTGLQLAECKADFGYWGQGTQVTVSS |
| binds | Wio-02-23 (R1-F9-GGGGS-Rap-C10) (bispecific antibody) QVQLQESGGGSVQAGETLRLSCTASGFTVHDMGWYRQAPGNECELVSTISSDGSTYYADSVKGRFTISQDNAKNTVYLQMNSLKPEDTAVYYCAADHFTGLQLAECKADFGYWGQGTQVTVSSGGGGSQVQLQESGGGSVQPGGSLRLSCAASGFTYIPAYMGWFRQAPGKERERVASISSTDGSTTYADSVKGRFTVSQDTAKNTLYLQMNSLKPEDTAMYYCAAYQFGAFRVWGQGTQVTVSS |
| binds | Wio-02-44 (Rap-A10-GGGGS-R1-E12) (bispecific antibody) QVQLQESGGGLVQAGGSLKLSCAASGYTYGPYCMGWFRQFPGKEREGVAAVGGDGRTWYGNSVKGRFTISQDNAKKTLYLQINALKPEDTAMYYCAADFDRTVCSDDIYDYTYRGQGTQVTVSSGGGGSQVQLQESGGGSVQAGGSLRLSCVASGTTMSMNYMAWFRQAPGKEREGVASIFRSTHYADSVKGRFTIAEDSAKNTVYLQMNSLKPEDTAVYYCAAGRTKPYLTPLAESQYNYWGQGIQVTVSS |
| binds | Wio-02-30 (Rap-C10-GGGGS-R1-C10) (bispecific antibody) QVQLQESGGGSVQPGGSLRLSCAASGFTYIPAYMGWFRQAPGKERERVASISSTDGSTTYADSVKGRFTVSQDTAKNTLYLQMNSLKPEDTAMYYCAAYQFGAFRVWGQGTQVTVSSGGGGSQVQLQESGGGSVQAGETLRLSCTASGSTFDEYDMGWYRQAPGNKCELVSTISTIDGSTYYADSVKGRFTISQDNTKNTVYLQMNSLKPEDTGVYYCEADDRGTWDRGGCWGQGTQVTVSS |

Further lines, the binder ahead of its results:

| Binder | binding |
| --- | --- |
| Wio-02-01 (R1-A12-GGGGS-Rap-A10) (bispecific antibody) QVQLQESGGGPVQAGGSLRLSCSASTTAYDNACMGWFRQAPGKEREGVASIHLRDRTYYADSVKGRFTLSRDGASKTLYLQMNSLKPEDSGTYYCASSNICNGLNLQGNTYWGQGTQVTVSSGGGGSQVQLQESGGGLVQAGGSLKLSCAASGYTYGPYCMGWFRQFPGKEREGVAAVGGDGRTWYGNSVKGRFTISQDNAKKTLYLQINALKPEDTAMYYCAADFDRTVCSDDIYDYTYRGQGTQVTVSS | binds |
| Wio-02-09 (R1-C10-GGGGS-Rap-F11) (bispecific antibody) QVQLQESGGGSVQAGETLRLSCTASGSTFDEYDMGWYRQAPGNKCELVSTISTIDGSTYYADSVKGRFTISQDNTKNTVYLQMNSLKPEDTGVYYCEADDRGTWDRGGCWGQGTQVTVSSGGGGSQVQLQESGGGSVQPGGSLRLSCAASGFTYIPAYMGWFRQAPGKERERVASIKTDGSTTYADSVNGRFTIAQDTAKNTLYLQMDSLKPEDTAMYYCAAYQFGAFRVWGQGTQVTVSS | binds |
| Wio-02-11 (R1-C10-GGGGS-Rap-C10) (bispecific antibody) QVQLQESGGGSVQAGETLRLSCTASGSTFDEYDMGWYRQAPGNKCELVSTISTIDGSTYYADSVKGRFTISQDNTKNTVYLQMNSLKPEDTGVYYCEADDRGTWDRGGCWGQGTQVTVSSGGGGSQVQLQESGGGSVQPGGSLRLSCAASGFTYIPAYMGWFRQAPGKERERVASISSTDGSTTYADSVKGRFTVSQDTAKNTLYLQMNSLKPEDTAMYYCAAYQFGAFRVWGQGTQVTVSS | binds |
| Wio-02-03 (R1-C7-GGGGS-Rap-F11) (bispecific antibody) QVQLQESGGGPVQAEGSLRLSCTASGNLYRDPCMGWFRQAPGKDREGVAAMNTGADSTFYARSVKGRFTISHDNAKNTLYLQMNSVKPEDTAMYYCAASRYCTERTWTWRYDYDYWGQGTQVTVSSGSQVQLQESGGGSVQPGGSLRLSCAASGFTYIPAYMGWFRQAPGKERERVASIKTDGSTTYADSVNGRFTIAQDTAKNTLYLQMDSLKPEDTAMYYCAAYQFGAFRVWGQGTQVTVSS | binds |
| Wio-02-05 (R1-C7-GGGGS-Rap-C10) (bispecific antibody) QVQLQESGGGPVQAEGSLRLSCTASGNLYRDPCMGWFRQAPGKDREGVAAMNTGADSTFYARSVKGRFTISHDNAKNTLYLQMNSVKPEDTAMYYCAASRYCTERTWTWRYDYDYWGQGTQVTVSSGGGGSQVQLQESGGGSVQPGGSLRLSCAASGFTYIPAYMGWFRQAPGKERERVASISSTDGSTTYADSVKGRFTVSQDTAKNTLYLQMNSLKPEDTAMYYCAAYQFGAFRVWGQGTQVTVSS | binds |
